In article PMC12035895:
These are yes or no findings as the source states them, for the method shown. In cells and extracts the contact can be indirect. Some results given as binding are weak or reduced against the parent protein; the word gives no strength.

The chains behind the UniProt entries cited, without tags or fusion partners. Residues count along the entry.
UniProt P08721, residues 17-317: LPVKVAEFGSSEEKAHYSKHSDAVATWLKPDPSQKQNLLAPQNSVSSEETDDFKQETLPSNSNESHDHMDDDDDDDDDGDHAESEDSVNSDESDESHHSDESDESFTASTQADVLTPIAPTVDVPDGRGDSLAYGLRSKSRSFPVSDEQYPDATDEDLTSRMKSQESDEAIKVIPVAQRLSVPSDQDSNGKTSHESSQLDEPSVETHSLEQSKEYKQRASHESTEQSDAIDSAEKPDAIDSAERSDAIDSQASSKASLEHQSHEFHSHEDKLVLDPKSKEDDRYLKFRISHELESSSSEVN

Assays:
[1] = target: T1, full-length ITGβ3, expressed in 293T cells (UniProt Q8R2H2); test: co-IP; lysates of 293T cells cotransfected with SPP1 and full-length or truncated ITGβ3 plasmids; precipitated with an anti-ITGβ3 antibody; western blot
T1 sequence: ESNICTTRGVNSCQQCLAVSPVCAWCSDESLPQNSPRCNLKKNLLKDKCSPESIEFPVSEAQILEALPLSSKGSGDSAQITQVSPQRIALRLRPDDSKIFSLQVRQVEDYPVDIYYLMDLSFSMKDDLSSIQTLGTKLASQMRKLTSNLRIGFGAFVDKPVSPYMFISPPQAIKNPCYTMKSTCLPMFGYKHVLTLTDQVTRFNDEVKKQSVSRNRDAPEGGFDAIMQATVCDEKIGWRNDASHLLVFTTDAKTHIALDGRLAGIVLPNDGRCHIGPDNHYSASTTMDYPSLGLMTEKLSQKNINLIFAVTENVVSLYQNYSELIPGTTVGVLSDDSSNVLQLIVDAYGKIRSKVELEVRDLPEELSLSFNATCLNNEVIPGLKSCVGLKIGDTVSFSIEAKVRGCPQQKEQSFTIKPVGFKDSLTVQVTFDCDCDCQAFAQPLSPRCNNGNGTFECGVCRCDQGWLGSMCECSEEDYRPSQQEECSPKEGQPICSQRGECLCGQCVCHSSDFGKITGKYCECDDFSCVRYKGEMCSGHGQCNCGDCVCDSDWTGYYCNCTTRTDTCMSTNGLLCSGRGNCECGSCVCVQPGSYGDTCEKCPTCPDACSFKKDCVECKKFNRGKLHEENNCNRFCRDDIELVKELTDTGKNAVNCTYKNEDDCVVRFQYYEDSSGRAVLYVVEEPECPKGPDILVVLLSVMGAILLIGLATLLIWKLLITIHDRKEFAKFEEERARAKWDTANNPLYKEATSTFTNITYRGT

[2] = target: T2, integrin beta 3 (ITGβ3), overexpressed by adenovirus in VSMCs (UniProt Q8R2H2); test: co-IP; lysates of adenovirus-transfected VSMCs incubated with SPP1, ITGβ3 or IgG beads at 4°C overnight; washed three times with lysis solution; western blot
T2 sequence: T1 sequence

[3] = target: secreted phosphoprotein 1 (SPP1), overexpressed by adenovirus in VSMCs (UniProt P08721); test: as above

**Q.** How did the binding [1] turn out when “SPP1, expressed in 293T cells (from UniProt P08721 17-317)” was run?
**A.** Its binding is “binds”.

**Q.** “secreted phosphoprotein 1 (SPP1), overexpressed by adenovirus in VSMCs (from UniProt P08721 17-317)” was tested. Which binding [2] did it give?
**A.** Its binding is “binds”.

B1: integrin beta 3 (ITGβ3), overexpressed by adenovirus in VSMCs (receptor, UniProt Q8R2H2 26-787)
chain: T1 sequence
**Q.** B1 was tested. Which binding [3] did it give?
**A.** The binding was “binds”.
